{
  "source": "paper PMC8066055",
  "molecular_target": "T1, JMJ29 fused to the C-terminal half of EYFP (Arabidopsis thaliana) (UniProt C0SV12)",
  "T1 sequence": "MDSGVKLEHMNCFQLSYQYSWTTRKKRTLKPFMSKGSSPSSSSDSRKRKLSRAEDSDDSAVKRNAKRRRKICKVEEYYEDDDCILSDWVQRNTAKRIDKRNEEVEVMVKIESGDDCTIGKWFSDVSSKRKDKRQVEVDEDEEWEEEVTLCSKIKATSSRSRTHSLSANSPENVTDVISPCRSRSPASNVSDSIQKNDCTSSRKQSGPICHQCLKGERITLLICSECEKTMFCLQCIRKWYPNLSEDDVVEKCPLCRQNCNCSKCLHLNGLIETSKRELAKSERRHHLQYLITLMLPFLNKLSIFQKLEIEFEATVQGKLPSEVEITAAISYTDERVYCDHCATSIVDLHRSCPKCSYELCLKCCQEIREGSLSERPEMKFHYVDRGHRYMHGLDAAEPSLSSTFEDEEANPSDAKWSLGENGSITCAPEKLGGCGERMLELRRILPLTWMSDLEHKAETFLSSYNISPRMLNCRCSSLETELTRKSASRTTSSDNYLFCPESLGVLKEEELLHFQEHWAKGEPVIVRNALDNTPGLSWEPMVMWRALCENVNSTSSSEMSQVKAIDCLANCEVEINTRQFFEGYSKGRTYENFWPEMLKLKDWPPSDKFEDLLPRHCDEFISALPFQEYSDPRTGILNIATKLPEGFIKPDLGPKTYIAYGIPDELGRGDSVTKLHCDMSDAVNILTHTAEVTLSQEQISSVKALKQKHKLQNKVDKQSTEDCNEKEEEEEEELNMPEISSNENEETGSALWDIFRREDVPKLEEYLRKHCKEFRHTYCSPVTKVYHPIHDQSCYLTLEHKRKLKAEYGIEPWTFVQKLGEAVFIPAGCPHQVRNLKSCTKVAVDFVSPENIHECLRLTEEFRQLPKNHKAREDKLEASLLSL",
  "test": "split reporter; BiFC; nEYFP and cEYFP fusions co-transfected into Arabidopsis protoplasts with mCherry-NLS nuclear marker; observed after 14 h by confocal imaging",
  "note": "No constants are given. Whether binding was seen depends on the method and setting. Binding seen in cells or lysates may run through a third protein. Some entries that bind do so weakly or less than the wild type. Where a sequence is shown, tags or fusion partners need not be part of it.",
  "data": [
    {"binder": "LUX fused to the N-terminal half of EYFP (protein, UniProt Q9SNB4 1-323) MGEEVQMSDYDVSGDGDRVSEWEMGLPSDEDLASLSYSLIPPNLAMAFSITPERSRTIQDVNRASETTLSSLRGGSSGPNTSSSNNNVEEEDRVGSSSPGSDSKKQKTSNGDGDDGGGVDPDSAMAAEEGDSGTEDLSGKTLKRPRLVWTPQLHKRFVDVVAHLGIKNAVPKTIMQLMNVEGLTRENVASHLQKYRLYLKRMQGLTNEGPSASDKLFSSTPVPPQSFQDIGGGGGSSGNVGVPIPGAYGTQQMMQMPVYAHHMGMQGYHHQNHNHDPYHQNHRHHHGAGGNGAFESNPYMMQQNKFGSMASYPSVGGGSANEN", "values": [
      {"measurement": "binding", "result": "binds"}
    ]}
  ]
}
